Positions count from the first letter of the chain named. For some assays here: The comparison behind a weaker result is the experiment's own reference, which may not be listed here. Tags and fusion partners may be left off the protein sequences shown. For some assays here: For at least one entry, the source does not settle the construct or the ends of the probe. For some assays here: At least one verdict was read from the data and is not stated in words by the source.
How the values were obtained:
Experiment in all cases: ITC
NRF1 DD-DBD (human) = biological target: T1, NRF1 DD-DBD (human) (UniProt Q16656); conditions: ITC: 20 mM Hepes pH 7.0, 150 mM NaCl, 25 C; protein 20-30 uM, dsDNA 500-600 uM; recombinant protein; residues 54-284; protein details: N-terminal His6 removed by TEV (pET28-MHL)
T1 sequence (looked up): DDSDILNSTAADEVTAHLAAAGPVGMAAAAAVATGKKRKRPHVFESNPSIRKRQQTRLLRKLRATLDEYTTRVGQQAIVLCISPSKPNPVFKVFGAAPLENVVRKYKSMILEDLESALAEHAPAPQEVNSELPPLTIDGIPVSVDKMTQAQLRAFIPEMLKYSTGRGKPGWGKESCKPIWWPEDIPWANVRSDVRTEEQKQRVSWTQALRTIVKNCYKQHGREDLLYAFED

NRF1 DBD R206A (human) = biological target: T2, NRF1 DBD R206A (human) (UniProt Q16656); conditions: significant reduction or complete loss, ND labels not assignable per mutant; ITC: 20 mM Hepes pH 7.0, 150 mM NaCl, 25 C; protein 20-30 uM, dsDNA 500-600 uM; recombinant protein; residues 177-284; protein details: N-terminal His6 removed by TEV
T2 sequence (looked up): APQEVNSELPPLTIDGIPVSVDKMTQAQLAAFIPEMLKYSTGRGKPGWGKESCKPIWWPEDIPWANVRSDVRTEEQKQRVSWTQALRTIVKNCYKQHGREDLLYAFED

NRF1 DBD K221A (human) = biological target: T3, NRF1 DBD K221A (human) (UniProt Q16656); conditions: significant reduction or complete loss, ND labels not assignable per mutant; ITC: 20 mM Hepes pH 7.0, 150 mM NaCl, 25 C; protein 20-30 uM, dsDNA 500-600 uM; recombinant protein; residues 177-284; protein details: N-terminal His6 removed by TEV
T3 sequence (looked up): T2 sequence (looked up) with A30R, K45A

NRF1 DBD R244A (human) = biological target: T4, NRF1 DBD R244A (human) (UniProt Q16656); conditions: significant reduction or complete loss, ND labels not assignable per mutant; ITC: 20 mM Hepes pH 7.0, 150 mM NaCl, 25 C; protein 20-30 uM, dsDNA 500-600 uM; recombinant protein; residues 177-284; protein details: N-terminal His6 removed by TEV
T4 sequence (looked up): T2 sequence (looked up) with A30R, R68A

NRF1 DBD N242A (human) = biological target: T5, NRF1 DBD N242A (human) (UniProt Q16656); conditions: significant reduction or complete loss, ND labels not assignable per mutant; ITC: 20 mM Hepes pH 7.0, 150 mM NaCl, 25 C; protein 20-30 uM, dsDNA 500-600 uM; recombinant protein; residues 177-284; protein details: N-terminal His6 removed by TEV
T5 sequence (looked up): T2 sequence (looked up) with A30R, N66A

NRF1 DBD (human) = biological target: T6, NRF1 DBD (human) (UniProt Q16656); conditions: mean of repeats 0.88, 0.96, 0.86, assigned from figure text; ITC: 20 mM Hepes pH 7.0, 150 mM NaCl, 25 C; protein 20-30 uM, dsDNA 500-600 uM; recombinant …; residues 177-284; protein details: N-terminal His6 removed by TEV (pET28-MHL)
T6 sequence (looked up): T2 sequence (looked up) with A30R

Sequence	binding result (NRF1 DD-DBD (human))	also measured
ATACGCATGCGTAT (double strand) [aCGC/GCGt]	binds more weakly	
GGTGCGCATGCGCACC (double strand) [16 bp DNA]		binding result (NRF1 DBD R206A (human)): binds more weakly; binding result (NRF1 DBD K221A (human)): binds more weakly; binding result (NRF1 DBD R244A (human)): binds more weakly; binding result (NRF1 DBD N242A (human)): binds more weakly; Kd (NRF1 DBD (human)): 900 nM
ATGCTCATGAGCAT (double strand) [GCtC/GaGC]	binds more weakly	
ATGCGAATTCGCAT (double strand) [GCGa/tCGC]	binds more weakly	
ATTCGCATGCGAAT (double strand) [tCGC/GCGa]	binds more weakly	
ATGTGCATGCACAT (double strand) [GtGC/GCaC]	binds more weakly	
ATGAGCATGCTCAT (double strand) [GaGC/GCtC]	binds more weakly	

Reference: paper PMC10810270, “Molecular mechanism of specific DNA sequence recognition by NRF1” (Nucleic Acids Research, 2023)
